# From the supplement of paper PMC9135407
# Values joined by “and” are separate entries in the source; they are usually repeats but may differ in a detail not shown here. Equal values may be shown once. Where a name gives a salt, the structure may show the parent alone. ± gives the standard deviation of the averaged measurements. The list shows a part of the results. Part of the spread comes from offsets between plates or batches.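 Assay uses culture-activated primary human stellate myofibroblasts; lipid droplet recovery indicates inactivation. Measured: proportion of Hoechst-counted cells over a plate-specific Bodipy cutoff, duplicate wells, DMSO and nortriptyline as per-plate negative and positive controls. A hit scores, control-normalized, above the plate's top-tenth-percentile nortriptyline wells or ranks among its three best wells. Final well concentrations not reported.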
# Tested on: primary human hepatic stellate cells (donor 1)
# Assay: percent Bodipy-positive cells; higher = more lipid droplet accumulation
# Conditions: 48 h
# [1] = library stock concentration: 3.33 mM
# [2] = library stock concentration: 10 mM
# [3] = library stock concentration: 1 mM
compound,measurement,setting,value
Oc1cc(O)cc(/C=C/c2ccc(O)c(O)c2)c1 [Piceatannol],percent Bodipy-positive cells,[1],6.92 ± 1%
same,percent Bodipy-positive cells,[2],3.96% and 8.1% and 4.39%
CC[C@@]1(O)C(=O)OCc2c1cc1n(c2=O)Cc2cc3c(CN(C)C)c(O)ccc3nc2-1 [Topotecan hydrochloride hydrate],percent Bodipy-positive cells,[2],51.6 ± 11%
CC[C@@]1(O)C(=O)OCc2c1cc1n(c2=O)Cc2cc3c(CN(C)C)c(O)ccc3nc2-1,percent Bodipy-positive cells,[2],17.9 ± 4%
CC[C@@]1(O)C(=O)OCc2c1cc1n(c2=O)Cc2cc3c(CN(C)C)c(O)ccc3nc2-1 [Topotecan HCl],percent Bodipy-positive cells,[1],12.7 ± 1.4%
same,percent Bodipy-positive cells,[2],29.7 ± 1.4%
CC[C@@]1(O)C(=O)OCc2c1cc1n(c2=O)Cc2cc3c(CN(C)C)c(O)ccc3nc2-1 [Topotecan],percent Bodipy-positive cells,library stock concentration: 4.7 mM,6.24 ± 2.1%
CC[C@@]1(O)C(=O)OCc2c1cc1n(c2=O)Cc2cc3c(CN(C)C)c(O)ccc3nc2-1 [Topotecan hydrochloride],percent Bodipy-positive cells,library stock concentration: 4.4 mM,30.6 ± 2%
same,percent Bodipy-positive cells,[2],49.6 ± 1.3%
Nc1nnc(-c2cccc(Cl)c2Cl)c(N)n1 [Lamotrigine],percent Bodipy-positive cells,[1],22.2 ± 5%
same,percent Bodipy-positive cells,library stock concentration: 7.8 mM,11.6% and 9.42%
same,percent Bodipy-positive cells,[2],8.25% and 32.3%
"Brc1ccc(C2CN3CCSC3=N2)cc1 (single isomer, unassigned; (-)) [(-)-p-Bromotetramisole Oxalate]",percent Bodipy-positive cells,[1],30.6 ± 4.4%
same,percent Bodipy-positive cells,[2],56 ± 9.3%
Cc1cc(Nc2cc(CN3CCOCC3)c3nc(C)c(Cc4ccc(Cl)cc4F)n3n2)n[nH]1,percent Bodipy-positive cells,[1],18.5 ± 2.4%
same,percent Bodipy-positive cells,[2],98.4 ± 2.2%
CCCCCCCCc1ccc(CCC(N)(CO)CO)cc1.Cl [Fingolimod (FTY720) HCl],percent Bodipy-positive cells,[1],97.54 ± 0.16%
NC(C(=O)O)c1ccc(C(=O)O)c(C(=O)O)c1 (racemic),percent Bodipy-positive cells,[2],5.87 ± 3.4%
O=C(O)CCC/C=C\C[C@H]1[C@@H](O)CC(=O)[C@@H]1/C=C/[C@@H](O)COc1cccc(C(F)(F)F)c1 [11-keto Fluprostenol],percent Bodipy-positive cells,[3],23.23 ± 0.21%
CCCCCS(=O)(=O)CCCCCCCCCCn1c(-c2ccc(O)cc2)c(C)c2cc(O)ccc21,percent Bodipy-positive cells,[2],9.87 ± 1.8%
COc1cc2c(Oc3ccc4[nH]c(C)cc4c3F)ncnc2cc1OCCCN1CCCC1 [Cediranib (AZD2171)],percent Bodipy-positive cells,[1],84.1 ± 5%
O=C1c2ccccc2CCC1CNCCc1ccc(O)cc1 (configuration not stated) [HEAT hydrochloride],percent Bodipy-positive cells,[2],77.7 ± 26%
O=C(O)c1ccc(O)c2ncccc12,percent Bodipy-positive cells,[1],25 ± 3.7%
same,percent Bodipy-positive cells,[2],46.2 ± 12%
COc1cc2ncnc(Nc3ccc(O)c(Br)c3)c2cc1OC,percent Bodipy-positive cells,[1],5.44 ± 2%
same,percent Bodipy-positive cells,[2],25.2 ± 16%
COc1cc2ncnc(Nc3ccc(O)c(Br)c3)c2cc1OC [JAK3 Inhibitor II],percent Bodipy-positive cells,[1],10.8 ± 3.5%
COCCCC/C(=N\OCCN)c1ccc(C(F)(F)F)cc1.O=C(O)/C=C\C(=O)O [Fluvoxamine maleate],percent Bodipy-positive cells,[2],95.1 ± 3%
COc1cc(-c2cc(-c3cccc(O)c3)cnc2N)cc(OC)c1OC,percent Bodipy-positive cells,[1],18.2 ± 6.5%
same,percent Bodipy-positive cells,[2],58.3 ± 26%
C#CC1(O)CC[C@H]2[C@@H]3CCC4=CC(=O)CC[C@@H]4[C@H]3CC[C@@]21CC (some centres not stated) [Norgestrel],percent Bodipy-positive cells,[3],6.204 ± 0.022%
same,percent Bodipy-positive cells,[2],13.9 ± 1.5%
CCCC(=O)Nc1cccc(NC(=O)c2ccccc2Br)c1,percent Bodipy-positive cells,[1],11.1 ± 1.1%
same,percent Bodipy-positive cells,[2],29.1 ± 6%
CCCCC/C=C\C=C1\C(=O)CC[C@@H]1C/C=C\CCCC(=O)O,percent Bodipy-positive cells,[3],14.2 ± 3.4%
CO[C@H]1C[C@@H]2CC[C@@H](C)[C@@](O)(O2)C(=O)C(=O)N2CCCC[C@H]2C(=O)O[C@H]([C@H](C)C[C@@H]2CC[C@H](n3cnnn3)[C@H](OC)C2)CC(=O)[C@H](C)/C=C(\C)[C@@H](O)[C@@H](OC)C(=O)[C@H](C)C[C@H](C)/C=C/C=C/C=C/1C [Zotarolimus(ABT-578)],percent Bodipy-positive cells,[1],20.712 ± 0.0028%
same,percent Bodipy-positive cells,[2],43.5 ± 8.3%
CO[C@H]1C=CC=C(C)C(=O)NC2=CC(=O)C(NCCN(C)C)=C(C[C@@H](C)C[C@H](OC)[C@H](O)[C@@H](C)C=C(C)[C@@H]1OC(N)=O)C2=O.Cl [17-DMAG (Alvespimycin) HCl],percent Bodipy-positive cells,[2],87.1 ± 5%
CCCOc1ccc(C=C2SC(=O)NC2=O)cc1,percent Bodipy-positive cells,library stock concentration: 80 uM,9.73 ± 7%
same,percent Bodipy-positive cells,library stock concentration: 400 uM,14.1 ± 3.2%
same,percent Bodipy-positive cells,library stock concentration: 2 mM,7.7 ± 0.18%
same,percent Bodipy-positive cells,[2],4.6 ± 0.34%
CC/C=C\C/C=C\C/C=C\CCCCCCCC(=O)O [Linolenic acid (18:3 n-3)],percent Bodipy-positive cells,[3],10.1 ± 10%
CC/C=C\C/C=C\C/C=C\CCCCCCCC(=O)O [.alpha.-Linolenic Acid],percent Bodipy-positive cells,[3],7.1 ± 0.98%
CC[C@H](C)C(=O)O[C@H]1C[C@H](O)C=C2C=C[C@H](C)[C@H](CC[C@@H](O)C[C@@H](O)CC(=O)O)[C@H]21 [PRAVASTATIN Sodium],percent Bodipy-positive cells,library stock concentration: 9.5 mM,6.76 ± 3.1%
CC[C@H](C)C(=O)O[C@H]1C[C@H](O)C=C2C=C[C@H](C)[C@H](CC[C@@H](O)C[C@@H](O)CC(=O)O)[C@H]21 [Pravastatin sodium],percent Bodipy-positive cells,[1],9.85 ± 0.34%
same,percent Bodipy-positive cells,library stock concentration: 4.5 mM,14.9 ± 0.5%
same,percent Bodipy-positive cells,[2],33.7% and 44.7%
CC[C@H](C)C(=O)O[C@H]1C[C@H](O)C=C2C=C[C@H](C)[C@H](CC[C@@H](O)C[C@@H](O)CC(=O)O)[C@H]21 [Pravastatin sodium salt],percent Bodipy-positive cells,[2],4.94 ± 0.58%
CCCc1c(OCCCOc2ccc(OCC(=O)O)cc2)ccc(C(C)=O)c1O,percent Bodipy-positive cells,[2],32.7% and 8.58%
O=C1CC2(CCCC2)CC(=O)N1CCCCNCC1COc2ccccc2O1 (configuration not stated),percent Bodipy-positive cells,[2],29 ± 1.9%
CC1=C(C(=O)O)N2C(=O)[C@@H](NC(=O)[C@H](N)c3ccccc3)[C@H]2SC1 [Cephalexin],percent Bodipy-positive cells,[1],6.32 ± 2%
same,percent Bodipy-positive cells,library stock concentration: 5.8 mM,10.8 ± 0.89%
same,percent Bodipy-positive cells,[2],14.4% and 25.5%
CC1=C(C(=O)O)N2C(=O)[C@@H](NC(=O)[C@H](N)c3ccccc3)[C@H]2SC1 [Cephalexin monohydrate],percent Bodipy-positive cells,,25.2 ± 3.8%
same,percent Bodipy-positive cells,[2],26 ± 5.8%
CC1=C(C(=O)O)N2C(=O)[C@@H](NC(=O)[C@H](N)c3ccccc3)[C@H]2SC1 [Cephalexin hydrate],percent Bodipy-positive cells,[2],55.4 ± 2.2%

# Pulled one by one from above (four):
compound,measurement,setting,value
Nc1nnc(-c2cccc(Cl)c2Cl)c(N)n1 [Lamotrigine],percent Bodipy-positive cells,[2],8.25% and 32.3%
CC[C@@]1(O)C(=O)OCc2c1cc1n(c2=O)Cc2cc3c(CN(C)C)c(O)ccc3nc2-1 [Topotecan hydrochloride],percent Bodipy-positive cells,library stock concentration: 4.4 mM,30.6 ± 2%
O=C(O)CCC/C=C\C[C@H]1[C@@H](O)CC(=O)[C@@H]1/C=C/[C@@H](O)COc1cccc(C(F)(F)F)c1 [11-keto Fluprostenol],percent Bodipy-positive cells,[3],23.23 ± 0.21%
COc1cc2ncnc(Nc3ccc(O)c(Br)c3)c2cc1OC [JAK3 Inhibitor II],percent Bodipy-positive cells,[1],10.8 ± 3.5%
